In the supplement of paper PMC12067093, “Discovery and optimisation of a covalent ligand for TRIM25 and its application to targeted protein ubiquitination” (Chemical Science, 2025):
This is one part of the list.

Protein sequences, listed by entry. Tags and fused reporters are not part of them. Lines headed by an entry give the natural chain unless they say otherwise; changes in a name come on top.
UniProt Q9HCK8: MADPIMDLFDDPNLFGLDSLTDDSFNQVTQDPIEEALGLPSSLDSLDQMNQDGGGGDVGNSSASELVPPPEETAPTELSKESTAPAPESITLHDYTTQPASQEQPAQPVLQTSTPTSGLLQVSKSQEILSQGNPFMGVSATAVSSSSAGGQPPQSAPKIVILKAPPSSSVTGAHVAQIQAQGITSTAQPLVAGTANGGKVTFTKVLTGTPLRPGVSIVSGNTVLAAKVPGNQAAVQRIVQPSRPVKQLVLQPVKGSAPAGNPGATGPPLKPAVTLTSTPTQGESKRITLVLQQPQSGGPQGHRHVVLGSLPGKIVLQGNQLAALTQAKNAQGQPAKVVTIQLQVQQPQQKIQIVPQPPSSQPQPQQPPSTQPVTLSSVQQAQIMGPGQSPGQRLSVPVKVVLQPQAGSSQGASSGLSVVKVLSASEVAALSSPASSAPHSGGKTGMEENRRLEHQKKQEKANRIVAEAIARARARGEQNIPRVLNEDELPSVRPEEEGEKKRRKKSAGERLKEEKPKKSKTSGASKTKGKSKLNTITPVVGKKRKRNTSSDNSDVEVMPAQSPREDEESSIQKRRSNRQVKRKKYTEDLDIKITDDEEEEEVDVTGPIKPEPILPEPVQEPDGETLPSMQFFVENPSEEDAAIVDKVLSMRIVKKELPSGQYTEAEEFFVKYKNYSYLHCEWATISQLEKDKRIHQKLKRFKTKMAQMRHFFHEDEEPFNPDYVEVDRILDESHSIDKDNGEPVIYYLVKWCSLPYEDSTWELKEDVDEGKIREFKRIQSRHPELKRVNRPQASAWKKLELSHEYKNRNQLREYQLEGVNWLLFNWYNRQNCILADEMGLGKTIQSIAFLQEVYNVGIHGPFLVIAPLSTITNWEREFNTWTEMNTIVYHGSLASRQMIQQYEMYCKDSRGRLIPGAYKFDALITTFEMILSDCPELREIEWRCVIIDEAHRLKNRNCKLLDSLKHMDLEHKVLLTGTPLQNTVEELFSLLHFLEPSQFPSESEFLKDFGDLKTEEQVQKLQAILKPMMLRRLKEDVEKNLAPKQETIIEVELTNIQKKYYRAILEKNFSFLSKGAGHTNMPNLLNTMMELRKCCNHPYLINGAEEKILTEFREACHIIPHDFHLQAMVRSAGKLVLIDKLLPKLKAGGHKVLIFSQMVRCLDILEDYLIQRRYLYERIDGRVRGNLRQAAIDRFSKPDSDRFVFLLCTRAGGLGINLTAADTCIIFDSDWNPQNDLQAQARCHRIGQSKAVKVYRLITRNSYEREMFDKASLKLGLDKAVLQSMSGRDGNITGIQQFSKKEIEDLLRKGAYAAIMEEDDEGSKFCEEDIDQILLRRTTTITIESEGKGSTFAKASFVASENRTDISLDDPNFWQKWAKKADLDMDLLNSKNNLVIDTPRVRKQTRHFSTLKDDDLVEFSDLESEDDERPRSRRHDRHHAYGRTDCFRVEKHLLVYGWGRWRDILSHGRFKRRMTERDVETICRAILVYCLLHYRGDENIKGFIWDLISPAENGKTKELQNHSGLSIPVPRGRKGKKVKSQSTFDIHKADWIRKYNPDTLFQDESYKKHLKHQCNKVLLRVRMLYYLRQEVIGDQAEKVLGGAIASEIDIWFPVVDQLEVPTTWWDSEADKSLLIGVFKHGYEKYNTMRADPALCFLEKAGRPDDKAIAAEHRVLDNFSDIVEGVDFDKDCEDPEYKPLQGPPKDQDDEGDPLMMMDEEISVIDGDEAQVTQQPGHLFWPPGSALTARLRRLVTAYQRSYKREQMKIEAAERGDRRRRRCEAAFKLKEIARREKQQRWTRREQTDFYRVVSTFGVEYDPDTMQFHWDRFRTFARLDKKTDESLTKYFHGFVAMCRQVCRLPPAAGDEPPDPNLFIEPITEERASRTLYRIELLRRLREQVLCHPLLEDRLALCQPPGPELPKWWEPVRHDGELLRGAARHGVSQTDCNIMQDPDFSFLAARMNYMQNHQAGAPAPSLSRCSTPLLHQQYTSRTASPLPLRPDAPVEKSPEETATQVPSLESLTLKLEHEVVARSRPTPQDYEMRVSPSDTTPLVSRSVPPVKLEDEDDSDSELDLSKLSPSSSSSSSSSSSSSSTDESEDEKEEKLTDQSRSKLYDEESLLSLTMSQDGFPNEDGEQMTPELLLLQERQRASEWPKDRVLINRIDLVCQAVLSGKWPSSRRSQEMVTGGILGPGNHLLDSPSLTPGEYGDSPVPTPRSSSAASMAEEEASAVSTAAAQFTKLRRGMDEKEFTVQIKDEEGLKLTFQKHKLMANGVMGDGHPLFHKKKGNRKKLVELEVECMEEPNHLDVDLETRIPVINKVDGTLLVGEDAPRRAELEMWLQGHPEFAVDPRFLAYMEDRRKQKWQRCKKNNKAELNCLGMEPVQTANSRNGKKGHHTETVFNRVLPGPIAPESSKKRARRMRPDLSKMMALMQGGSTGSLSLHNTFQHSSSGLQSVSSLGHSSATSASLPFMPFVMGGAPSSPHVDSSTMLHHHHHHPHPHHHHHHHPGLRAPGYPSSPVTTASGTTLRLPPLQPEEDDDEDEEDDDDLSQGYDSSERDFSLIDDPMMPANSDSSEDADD
UniProt Q9P2E5: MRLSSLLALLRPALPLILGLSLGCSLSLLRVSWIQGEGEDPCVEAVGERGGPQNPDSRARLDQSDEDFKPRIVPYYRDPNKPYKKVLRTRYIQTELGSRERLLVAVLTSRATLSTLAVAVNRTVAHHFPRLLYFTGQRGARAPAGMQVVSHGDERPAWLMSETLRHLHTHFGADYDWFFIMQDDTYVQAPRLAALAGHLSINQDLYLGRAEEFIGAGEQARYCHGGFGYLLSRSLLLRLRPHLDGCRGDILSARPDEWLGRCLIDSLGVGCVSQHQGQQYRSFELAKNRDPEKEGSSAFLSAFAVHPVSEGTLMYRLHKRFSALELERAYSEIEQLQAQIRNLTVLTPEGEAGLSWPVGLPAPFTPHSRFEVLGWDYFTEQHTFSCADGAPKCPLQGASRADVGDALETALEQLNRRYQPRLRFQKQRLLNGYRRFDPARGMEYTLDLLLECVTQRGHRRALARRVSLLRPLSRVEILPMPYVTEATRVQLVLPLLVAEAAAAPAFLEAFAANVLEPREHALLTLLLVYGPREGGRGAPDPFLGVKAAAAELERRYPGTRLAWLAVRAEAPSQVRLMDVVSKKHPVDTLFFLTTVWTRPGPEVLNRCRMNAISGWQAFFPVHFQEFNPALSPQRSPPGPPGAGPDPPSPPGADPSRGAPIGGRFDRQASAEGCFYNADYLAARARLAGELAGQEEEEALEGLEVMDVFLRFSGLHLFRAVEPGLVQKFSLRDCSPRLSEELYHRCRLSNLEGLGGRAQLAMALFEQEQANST
UniProt O14578, whole entry, looked up: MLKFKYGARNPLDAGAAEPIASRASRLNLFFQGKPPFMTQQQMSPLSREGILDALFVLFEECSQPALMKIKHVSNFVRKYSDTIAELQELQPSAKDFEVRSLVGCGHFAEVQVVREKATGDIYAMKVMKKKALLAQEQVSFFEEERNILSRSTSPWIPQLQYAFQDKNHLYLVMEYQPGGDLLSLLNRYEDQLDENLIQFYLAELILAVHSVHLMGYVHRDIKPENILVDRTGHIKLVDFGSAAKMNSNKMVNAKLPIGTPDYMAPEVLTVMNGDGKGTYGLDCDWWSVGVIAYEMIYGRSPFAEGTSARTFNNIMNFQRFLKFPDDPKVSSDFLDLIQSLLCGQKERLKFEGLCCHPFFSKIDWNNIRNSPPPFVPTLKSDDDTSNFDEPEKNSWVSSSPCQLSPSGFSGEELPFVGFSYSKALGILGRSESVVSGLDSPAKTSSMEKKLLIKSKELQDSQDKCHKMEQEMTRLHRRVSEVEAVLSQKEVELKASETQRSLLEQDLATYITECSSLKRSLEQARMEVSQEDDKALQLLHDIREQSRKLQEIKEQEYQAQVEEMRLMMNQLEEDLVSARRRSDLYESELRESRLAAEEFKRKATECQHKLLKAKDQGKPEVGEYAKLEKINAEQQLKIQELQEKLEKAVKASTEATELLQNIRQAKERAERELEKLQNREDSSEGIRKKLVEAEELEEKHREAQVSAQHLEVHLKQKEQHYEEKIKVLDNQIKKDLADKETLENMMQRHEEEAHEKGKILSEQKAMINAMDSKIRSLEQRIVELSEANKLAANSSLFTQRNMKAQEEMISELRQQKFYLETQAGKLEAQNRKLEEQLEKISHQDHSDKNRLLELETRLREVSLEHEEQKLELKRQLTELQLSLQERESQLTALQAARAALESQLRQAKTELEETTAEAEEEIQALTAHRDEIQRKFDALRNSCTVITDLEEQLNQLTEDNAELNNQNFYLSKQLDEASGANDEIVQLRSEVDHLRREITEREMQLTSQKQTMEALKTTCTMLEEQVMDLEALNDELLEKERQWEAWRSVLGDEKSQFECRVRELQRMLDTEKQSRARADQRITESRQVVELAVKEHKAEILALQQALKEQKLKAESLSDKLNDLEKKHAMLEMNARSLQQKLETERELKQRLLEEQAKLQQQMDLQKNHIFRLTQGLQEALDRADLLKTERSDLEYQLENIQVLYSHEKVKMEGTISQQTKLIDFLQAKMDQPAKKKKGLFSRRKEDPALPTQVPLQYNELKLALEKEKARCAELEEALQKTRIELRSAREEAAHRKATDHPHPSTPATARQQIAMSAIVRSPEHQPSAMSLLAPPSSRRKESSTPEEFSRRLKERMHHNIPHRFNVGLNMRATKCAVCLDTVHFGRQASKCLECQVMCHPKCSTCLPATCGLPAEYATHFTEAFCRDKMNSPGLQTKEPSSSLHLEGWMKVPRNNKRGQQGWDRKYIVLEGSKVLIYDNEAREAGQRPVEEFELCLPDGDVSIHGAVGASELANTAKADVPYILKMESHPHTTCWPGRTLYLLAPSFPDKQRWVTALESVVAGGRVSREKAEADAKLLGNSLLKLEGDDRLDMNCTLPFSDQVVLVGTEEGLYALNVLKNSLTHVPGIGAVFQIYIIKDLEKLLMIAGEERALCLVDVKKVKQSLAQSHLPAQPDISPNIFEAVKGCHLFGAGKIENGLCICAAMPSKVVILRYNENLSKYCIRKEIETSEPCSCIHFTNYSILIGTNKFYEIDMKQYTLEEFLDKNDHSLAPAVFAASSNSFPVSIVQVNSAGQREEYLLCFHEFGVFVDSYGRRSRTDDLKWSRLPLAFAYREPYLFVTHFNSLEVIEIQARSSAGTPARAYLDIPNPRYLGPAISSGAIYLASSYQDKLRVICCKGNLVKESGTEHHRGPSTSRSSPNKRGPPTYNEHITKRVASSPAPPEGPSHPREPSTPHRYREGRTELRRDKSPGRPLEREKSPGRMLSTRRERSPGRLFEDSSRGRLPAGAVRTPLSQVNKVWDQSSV
UniProt O96017, whole entry: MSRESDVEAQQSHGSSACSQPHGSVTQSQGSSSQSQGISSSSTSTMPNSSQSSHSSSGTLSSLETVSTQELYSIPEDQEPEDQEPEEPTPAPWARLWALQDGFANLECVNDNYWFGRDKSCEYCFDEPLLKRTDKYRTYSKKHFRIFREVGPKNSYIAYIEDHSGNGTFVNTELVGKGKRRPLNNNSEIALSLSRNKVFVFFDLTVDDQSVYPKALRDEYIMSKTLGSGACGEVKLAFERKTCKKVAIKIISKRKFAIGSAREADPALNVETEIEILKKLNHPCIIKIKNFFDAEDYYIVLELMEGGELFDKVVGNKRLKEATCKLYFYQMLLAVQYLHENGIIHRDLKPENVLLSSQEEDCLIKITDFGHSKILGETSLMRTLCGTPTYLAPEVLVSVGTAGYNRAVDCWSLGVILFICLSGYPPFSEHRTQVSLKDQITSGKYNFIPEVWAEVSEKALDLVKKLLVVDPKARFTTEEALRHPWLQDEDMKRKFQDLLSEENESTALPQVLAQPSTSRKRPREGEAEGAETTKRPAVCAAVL
UniProt P09496: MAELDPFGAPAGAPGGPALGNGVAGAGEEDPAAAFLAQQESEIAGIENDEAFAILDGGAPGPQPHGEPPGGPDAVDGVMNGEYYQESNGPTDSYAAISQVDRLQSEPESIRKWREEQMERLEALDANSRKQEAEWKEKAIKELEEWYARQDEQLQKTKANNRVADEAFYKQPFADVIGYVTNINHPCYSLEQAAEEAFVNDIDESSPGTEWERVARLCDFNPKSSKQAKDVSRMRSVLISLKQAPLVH
UniProt Q92989: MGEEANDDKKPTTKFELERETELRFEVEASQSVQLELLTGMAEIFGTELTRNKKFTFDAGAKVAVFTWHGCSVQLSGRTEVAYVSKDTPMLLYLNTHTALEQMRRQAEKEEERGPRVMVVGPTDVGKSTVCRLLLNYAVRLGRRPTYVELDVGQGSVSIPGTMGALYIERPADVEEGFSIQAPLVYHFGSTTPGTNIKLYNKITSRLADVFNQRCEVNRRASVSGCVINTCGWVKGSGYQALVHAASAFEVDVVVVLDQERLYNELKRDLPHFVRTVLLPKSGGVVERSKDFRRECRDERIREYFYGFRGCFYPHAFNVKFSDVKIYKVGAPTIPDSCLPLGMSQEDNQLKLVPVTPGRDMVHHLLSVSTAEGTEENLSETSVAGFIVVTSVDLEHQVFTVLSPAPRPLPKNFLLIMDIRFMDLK

Compound: Cc1cc(ccc1-c1ccccc1)C(=O)N1CCCN(CC1)C(=O)CCl [compound 10]
Test: probe-labelled cysteine peptide fold change vs DMSO (competition) (log2 fold change); higher = less target engagement (more negative = stronger competition)
Details: THP-1, incubation time: 4 h
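Further: competitive profiling in live THP-1 cells: cysteine peptides tagged with an iodoacetamide desthiobiotin (IA-DTB) probe, intensity after compound treatment relative to DMSO-treated cells.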

Target | probe-labelled cysteine peptide fold change (10 µM) | probe-labelled cysteine peptide fold change (50 µM)
CHERP_Q8IWX8_69_LALEQQQLICK (UniProt Q8IWX8) | -0.253 | 0.0379
CLUH_O75153_200_ERPLCPLQPQNR (UniProt O75153) | -0.171 | -0.0345
CIAO3_Q9H6Q4_270_DVDCVLTTGEVFR (UniProt Q9H6Q4) | -0.391 | -0.19
CHD8_Q9HCK8_1947_HGVSQTDCNIMQDPDFSFLAAR (UniProt Q9HCK8) | -0.33 | -0.00258
CHCHD5_Q9BSY4_44_MSIAQCTSSHPIIR (UniProt Q9BSY4) | -0.00374 | 0.266
CGGBP1_Q9UFW8_43+46_LFCTSCNVVLNHVR (UniProt Q9UFW8) | 0.208 | 0.185
CHPF2_Q9P2E5_223_YCHGGFGYLLSR (UniProt Q9P2E5) | -0.231 | 0.173
CHAF1A_Q13111_710_VLQQFAACFLETLPAQEEQTPK (UniProt Q13111) | 0.175 | 0.0656
CIT_O14578_1392_CLECQVMCHPK (UniProt O14578) | 0.254 | 0.0669
CLEC16A_Q2KHT3_566_LATLELSCLLLK (UniProt Q2KHT3) | 0.269 | 0.318
CHEK2_O96017_108_LWALQDGFANLECVNDNYWFGR (UniProt O96017) | 0.059 | 0.0448
CLTA_P09496_218_LCDFNPK (UniProt P09496) | -0.0392 | -0.182
CLP1_Q92989_71_VAVFTWHGCSVQLSGR (UniProt Q92989) | -0.0212 | 0.0811
CHST14_Q8NCH0_159_VACSNWK (UniProt Q8NCH0) | -0.23 | -0.087
CHD2_O14647_500_KQPAYLGGENLELRDYQLEGLNWLAHSWCK (UniProt O14647) | -0.019 | -0.189

Looked up one by one from the list above (2):
Target | probe-labelled cysteine peptide fold change (10 µM) | probe-labelled cysteine peptide fold change (50 µM)
CHPF2_Q9P2E5_223_YCHGGFGYLLSR (UniProt Q9P2E5) | -0.231 | 0.173
CHD2_O14647_500_KQPAYLGGENLELRDYQLEGLNWLAHSWCK (UniProt O14647) | -0.019 | -0.189
